# Results as given in the supplement of paper PMC8728848.
# The other results are listed elsewhere or left out.
# Tests used:
# Experiment in all cases: glycan array binding signal (z-score within array); higher = stronger binding
# Conditions in all cases: glycan notation: IUPAC condensed, linker removed
# [1] = biological target: Fuc(a1-2)Gal
# Outline: (§1)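 Glycan array data came from 3228 arrays in the Consortium for Functional Glycomics database, and only arrays with an available protein sequence were kept. Glycan names were put into IUPAC-condensed notation, and columns mapping to the same glycan were averaged. The binding signal is a within-array Z-score, averaged across arrays of one protein sequence run at different concentrations or buffers and across linkers. A negative Z-score can be read as non-binding.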
# [2] = biological target: Fuc(a1-2)Gal(b1-3)GalNAc
# Outline: as §1
# [3] = biological target: Fuc(a1-2)Gal(b1-3)GalNAc(a1-3)[Fuc(a1-2)]Gal(b1-4)Glc
# Outline: as §1
# [4] = biological target: Fuc(a1-2)Gal(b1-3)GalNAc(a1-3)[Fuc(a1-2)]Gal(b1-4)GlcNAc
# Outline: as §1
# [5] = biological target: Fuc(a1-2)Gal(b1-3)GalNAc(b1-3)Gal
# Outline: as §1
# [6] = biological target: Fuc(a1-2)Gal(b1-3)GalNAc(b1-3)Gal(a1-4)Gal(b1-4)Glc
# Outline: as §1
# [7] = biological target: Fuc(a1-2)Gal(b1-3)GalNAc(b1-4)[Neu5Ac(a2-3)]Gal(b1-4)Glc
# Outline: as §1
# [8] = biological target: Fuc(a1-2)Gal(b1-3)GlcNAc
# Outline: as §1
# [9] = biological target: Fuc(a1-2)Gal(b1-3)GlcNAc(b1-2)Man(a1-3)[Fuc(a1-2)Gal(b1-3)GlcNAc(b1-2)Man(a1-6)]Man(b1-4)GlcNAc(b1-4)GlcNAc
# Outline: as §1
# [10] = biological target: Fuc(a1-2)Gal(b1-3)GlcNAc(b1-2)Man(a1-3)[Fuc(a1-2)Gal(b1-3)GlcNAc(b1-2)Man(a1-6)]Man(b1-4)GlcNAc(b1-4)[Fuc(a1-6)]GlcNAc
# Outline: as §1
# [11] = biological target: Fuc(a1-2)Gal(b1-3)GlcNAc(b1-3)Gal(b1-4)Glc
# Outline: as §1
# [12] = biological target: Fuc(a1-2)Gal(b1-3)GlcNAc(b1-3)GalNAc
# Outline: as §1
# [13] = biological target: Fuc(a1-2)Gal(b1-3)GlcNAc(b1-3)[Fuc(a1-2)Gal(b1-3)GlcNAc(b1-6)]GalNAc
# Outline: as §1
# [14] = biological target: Fuc(a1-2)Gal(b1-3)GlcNAc(b1-3)[Gal(b1-4)GlcNAc(b1-6)]Gal(b1-4)Glc
# Outline: as §1
# [15] = biological target: Fuc(a1-2)Gal(b1-3)GlcNAc(b1-3)[Neu5Ac(a2-6)Gal(b1-4)GlcNAc(b1-6)]Gal(b1-4)Glc
# Outline: as §1
# [16] = biological target: Fuc(a1-2)Gal(b1-3)GlcNAc6S
# Outline: as §1
# [17] = biological target: Fuc(a1-2)Gal(b1-3)[Fuc(a1-4)]GlcNAc
# Outline: as §1
# [18] = biological target: Fuc(a1-2)Gal(b1-3)[Fuc(a1-4)]GlcNAc(b1-2)Man(a1-3)[Fuc(a1-2)Gal(b1-3)[Fuc(a1-4)]GlcNAc(b1-2)Man(a1-3)]Man(b1-4)GlcNAc(b1-4)GlcNAc
# Outline: as §1
# [19] = biological target: Fuc(a1-2)Gal(b1-3)[Fuc(a1-4)]GlcNAc(b1-2)Man(a1-3)[Fuc(a1-2)Gal(b1-3)[Fuc(a1-4)]GlcNAc(b1-2)Man(a1-6)]Man(b1-4)GlcNAc(b1-4)[Fuc(a1-6)]GlcNAc(b1-4)[Fuc(a1-6)]GlcNAc
# Outline: as §1
# [20] = biological target: Fuc(a1-2)Gal(b1-3)[Fuc(a1-4)]GlcNAc(b1-3)[Fuc(a1-3)[Gal(b1-4)]GlcNAc(b1-6)]Gal(b1-4)Glc
# Outline: as §1
# [21] = biological target: Fuc(a1-2)Gal(b1-3)[Fuc(a1-4)]GlcNAc(b1-3)[Gal(b1-4)GlcNAc(b1-6)]Gal(b1-4)Glc
# Outline: as §1
# [22] = biological target: Fuc(a1-2)Gal(b1-4)Glc
# Outline: as §1
# [23] = biological target: Fuc(a1-2)Gal(b1-4)Glc6S
# Outline: as §1
# [24] = biological target: Fuc(a1-2)Gal(b1-4)GlcNAc
# Outline: as §1
# [25] = biological target: Fuc(a1-2)Gal(b1-4)GlcNAc(b1-2)Man
# Outline: as §1
# [26] = biological target: Fuc(a1-2)Gal(b1-4)GlcNAc(b1-2)Man(a1-3)[Fuc(a1-2)Gal(b1-4)GlcNAc(b1-2)Man(a1-6)]Man(b1-4)GlcNAc(b1-4)GlcNAc
# Outline: as §1
# [27] = biological target: Fuc(a1-2)Gal(b1-4)GlcNAc(b1-2)Man(a1-3)[Fuc(a1-2)Gal(b1-4)GlcNAc(b1-2)Man(a1-6)]Man(b1-4)GlcNAc(b1-4)[Fuc(a1-6)]GlcNAc
# Outline: as §1
# [28] = biological target: Fuc(a1-2)Gal(b1-4)GlcNAc(b1-2)[Fuc(a1-2)Gal(b1-4)GlcNAc(b1-4)]Man(a1-3)[Fuc(a1-2)Gal(b1-4)GlcNAc(b1-2)Man(a1-6)]Man(b1-4)GlcNAc(b1-4)GlcNAc
# Outline: as §1
# [29] = biological target: Fuc(a1-2)Gal(b1-4)GlcNAc(b1-3)Gal(b1-4)GlcNAc
# Outline: as §1
# [30] = biological target: Fuc(a1-2)Gal(b1-4)GlcNAc(b1-3)Gal(b1-4)GlcNAc(b1-2)Man(a1-3)[Fuc(a1-2)Gal(b1-4)GlcNAc(b1-3)Gal(b1-4)GlcNAc(b1-2)Man(a1-6)]Man(b1-4)GlcNAc(b1-4)GlcNAc
# Outline: as §1
binder,measurement,setting,value
Aap brpt (Staphylococcus epidermidis) (protein) VDGDPITSTEEIPFDKKREFDPNLAPGTEKVVQKGEPGTKTITTPTTKNPLTGEKVGEGEPTEKITKQPVDEIVHYGGEEIKTGHKDEFDPNAPKGSQTTQPGKPGVKNPDTGEVVTPPVDDVTKYGPVDGDPITSTEEIPFDKKREFDPNLAPGTEKVVQKGEPGTKTITTPTTKNPLTGEKVGEGEPTEKITKQPVDEIVHYGGEEIKPGHKDEFDPNAPKGSQEDVPGKPGVKNPDTGEVVTPPVDDVTKYGPVDGDSITSTEEIPFDKKREFDPNLAPGTEKVVQKGEPGTKTITTPTTKNPLTGEKVGEGEPTEKITKQPVDEIVHYGGEQIPQGHKDEFDPNAPVDSKTEVPGKPGVKNPDTGEVVTPPVDDVTKYGPVDGDSITSTEEIPFDKKREFDPNLAPGTEKVVQKGEPGTKTITTPTTKNPLTGEKVGEGKSTEKVTKQPVDEIVEYGPTK,glycan array binding signal (z-score),[1],0.249
same,glycan array binding signal (z-score),[2],-1
same,glycan array binding signal (z-score),[3],1.2
same,glycan array binding signal (z-score),[4],1.13
same,glycan array binding signal (z-score),[5],-0.739
same,glycan array binding signal (z-score),[6],0.375
same,glycan array binding signal (z-score),[7],-0.026
same,glycan array binding signal (z-score),[8],-0.441
same,glycan array binding signal (z-score),[9],-0.377
same,glycan array binding signal (z-score),[10],-1.22
same,glycan array binding signal (z-score),[11],0.714
same,glycan array binding signal (z-score),[12],-0.282
same,glycan array binding signal (z-score),[13],0.721
same,glycan array binding signal (z-score),[14],0.337
same,glycan array binding signal (z-score),[15],-1.43
same,glycan array binding signal (z-score),[16],1.76
same,glycan array binding signal (z-score),[17],0.474
same,glycan array binding signal (z-score),[18],-0.504
same,glycan array binding signal (z-score),[19],0.352
same,glycan array binding signal (z-score),[20],0.248
same,glycan array binding signal (z-score),[21],-0.192
same,glycan array binding signal (z-score),[22],1.19
same,glycan array binding signal (z-score),[23],-0.576
same,glycan array binding signal (z-score),[24],-0.952
same,glycan array binding signal (z-score),[25],-0.269
same,glycan array binding signal (z-score),[26],-0.497
same,glycan array binding signal (z-score),[27],-0.329
same,glycan array binding signal (z-score),[28],0.106
same,glycan array binding signal (z-score),[29],-0.45
same,glycan array binding signal (z-score),[30],-1.91

# Random excerpt: 2 records from the list.
binder,measurement,setting,value
Aap brpt (Staphylococcus epidermidis) (protein) VDGDPITSTEEIPFDKKREFDPNLAPGTEKVVQKGEPGTKTITTPTTKNPLTGEKVGEGEPTEKITKQPVDEIVHYGGEEIKTGHKDEFDPNAPKGSQTTQPGKPGVKNPDTGEVVTPPVDDVTKYGPVDGDPITSTEEIPFDKKREFDPNLAPGTEKVVQKGEPGTKTITTPTTKNPLTGEKVGEGEPTEKITKQPVDEIVHYGGEEIKPGHKDEFDPNAPKGSQEDVPGKPGVKNPDTGEVVTPPVDDVTKYGPVDGDSITSTEEIPFDKKREFDPNLAPGTEKVVQKGEPGTKTITTPTTKNPLTGEKVGEGEPTEKITKQPVDEIVHYGGEQIPQGHKDEFDPNAPVDSKTEVPGKPGVKNPDTGEVVTPPVDDVTKYGPVDGDSITSTEEIPFDKKREFDPNLAPGTEKVVQKGEPGTKTITTPTTKNPLTGEKVGEGKSTEKVTKQPVDEIVEYGPTK,glycan array binding signal (z-score),[30],-1.91
same,glycan array binding signal (z-score),[11],0.714
